Data: PubChem BioAssay AID493014 (National Center for Advancing Translational Sciences (NCATS), 2011)
The whole screen tested about 340,000 compounds, of which about 170 (0.05%) were called active. The inconclusive results got no clear call from the source; some entries with a clear call stand among them for comparison. Calls come from the whole dose curve; as a rule, active = well fitted inhibition curve with a large enough effect in the signal ratio, with a control signal flat (not every such curve was filed as active); inconclusive = small, poorly fitted or top-dose-only effect, or effect the other way, or a change in a side signal; inactive = flat fitted curve, though single readings scatter; the % refers to the signal ratio. Potencies beside an inconclusive call are fits to weak or partial responses and may not hold up.

Experiment: qHTS Assay to Find Inhibitors of Chronic Active B-Cell Receptor Signaling;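 for activity change, negative = inhibition: plate controls were basal doxycycline-induced cells for no effect and cells given 10 µM MG132 for full effect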
Settings: ABC-DLBCL IkBa-CBG/CBR reporter, luminescence ratio (green luciferase fused to IkBa over red control in TMD8 lymphoma cells), 4 h; activity change, negative = inhibition: at 46.1 µM (top of the series)
Procedure, shortened: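 TMD8 human ABC-DLBCL cells with doxycycline-inducible IκBα–green luciferase fusion and unfused red luciferase, in 0.5% FBS medium; compounds up to 46 uM, 4 h at 37C. Green/red luminescence ratio, filter-overlap corrected, fitted to concentration-response curves.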
Potency is the fitted concentration of half-maximal effect.

| SMILES | activity change, negative = inhibition | Potency |
| --- | --- | --- |
| CN(Cc1ccccc1)C(=O)COC(=O)c1cc([N+](=O)[O-])ccc1N1CCOCC1 | inconclusive: 0.0058% |  |
| CCN1CCN(C(=O)c2cc(-c3ccc(Cl)s3)nc3ccccc23)CC1 | inconclusive: -2.15% |  |
| O=C(Cc1c[nH]c2ccccc12)Nc1cccc(S(=O)(=O)N2CCCCC2)c1 | inactive |  |
| CCC(CC)c1nnc(NC(=O)c2ccc3ccccc3n2)s1 | inconclusive: -3.7% |  |
| CSc1ccc(C(=S)N2CCN(C)CC2)cc1 | inactive |  |
| O=C(Nc1ccc2ccccc2n1)Nc1cccs1 | inconclusive: 6.13% |  |
| COc1cccc(-n2nnnc2SCC(=O)Nc2ccccc2OC)c1 |  | inconclusive: 10 µM [falling, partial curve] |
| CS(=O)(=O)N1CCN(C(=O)Cc2ccccc2)CC1 | inconclusive: 6.54% |  |
| Cc1cc(NC(=O)c2cccc(Br)c2)n[nH]1 |  | inconclusive: 18.4 µM [falling, single point] |
| COc1ccc2sc(-c3ccccc3OC)c(-c3ccc(OCCN4CCOCC4)cc3)c2c1 |  | inconclusive: 20.6 µM [falling, single point] |
| CCOc1ccc(C(=O)NC(C(=O)NCc2ccccc2OC)C(C)C)cc1 (configuration not stated) | inactive |  |
| Cc1cc(OCC(=O)Nc2ccccc2N2CCCC2)ccc1C(C)C | inconclusive: 21.5% |  |
| CC1(C)Cc2c(sc3c2c(N)nc(=S)n3Cc2ccc(Br)cc2)CO1 | inactive |  |
| CN(C)S(=O)(=O)c1cccc(NC(=O)COC(=O)CCSc2ccc(Cl)cc2)c1 | inactive |  |
| Cc1ccccc1NC(=O)c1ccccc1NC(=O)CCC(=O)O | inconclusive: 3.23% |  |
| CCOc1ccc(/C=C2\SC(=S)N(CCC(=O)Nc3ccccc3C(=O)O)C2=O)cc1 | inconclusive: -0.416% |  |
| COc1ccc(C(=O)N[C@H](C(=O)Nc2nc3ccccc3[nH]2)C(C)C)cc1 |  | inconclusive: 35.5 µM [cytotoxic, single point] |
| Cc1nc(NC(CC(C)C)C(=O)O)c2nc(C)oc2n1 (configuration not stated) | inconclusive: 1.07% |  |
| O=S(=O)(NCc1cn2ccsc2n1)c1cccs1 | inactive |  |
| CC(=O)c1cccc(NC(=O)c2ccc3c(c2)OCO3)c1 |  | inconclusive: 22.4 µM [falling, single point] |
| CN(CC(=O)NNC(=O)Cc1ccccc1F)S(=O)(=O)c1ccc(Cl)cc1 | inactive |  |

| SMILES | activity change, negative = inhibition | Potency |
| --- | --- | --- |
| C/C(=N\NC(=O)c1ccncc1)c1ccc(N(C)C)cc1 |  | inconclusive: 25.1 µM [falling, single point] |
| Cc1cc(OCCCCCn2ccnc2)cc(C)c1Cl | inactive |  |
| CC1CCCCN1C(=O)Nc1cccc(Cl)c1 (configuration not stated) | inconclusive: 2.03% |  |
| O=C(NCc1ccc(Cl)c(Cl)c1)c1ccc2c(c1)OCO2 | inactive |  |
| CCCNC(=O)NS(=O)(=O)c1cnccc1Sc1ccc(Cl)c(Cl)c1 | inconclusive: -14.6% |  |
| CCOC(=O)CN1C(=O)C(Sc2n[nH]c(-c3ccccc3)n2)CCc2ccccc21 (configuration not stated) | inactive |  |
| CN1Cc2cc(C(=O)c3cc(Cl)cc(CSc4ncccn4)c3O)cnc2NC1=O |  | inconclusive: 1.58 µM [falling, full curve] |
| O=C(CN1C(=O)C2C3C=CC(C3)C2C1=O)Nc1ccc(F)cc1 (configuration not stated) | inconclusive: -16.6% |  |
| COc1cccc(-c2nnc(SCC(=O)N3CCOCC3)o2)c1 | inconclusive: -1.22% |  |
| NS(=O)(=O)c1ccc(NC(=O)CCC2CCCCC2)cc1 | inconclusive: -0.213% |  |
| CC1CCN(c2ccc([N+](=O)[O-])cn2)CC1 | inconclusive: 24.4% |  |
| CCOC(=O)C1CCCCN1Cc1ccc(-c2ccccc2)cc1 (configuration not stated) | inconclusive: 6.31% |  |
| CCN(Cc1ccc(OC)c(F)c1)C(=O)c1cc2ccccc2o1 |  | inconclusive: 12.6 µM [falling, partial curve, poor fit] |
| COc1cccc(C(=O)Nc2ccccc2C(=O)N2CCCC2)c1 |  | inconclusive: 18.4 µM [falling, single point] |
| CCc1ccc(CNC(=O)c2cc(=O)[nH]c3ccc(S(=O)(=O)N4CCCCC4)cc23)cc1 | inactive |  |
| O=C(Nc1ccc(F)cc1)N(CCCN1CCOCC1)Cc1cc2cc3c(cc2[nH]c1=O)OCCO3 | inconclusive: -2.35% |  |
| CCOC(=O)c1c(NC(=O)c2cc(C(C)C)on2)sc(C(C)=O)c1C | inconclusive: -19.8% |  |
| CC(C)(C)c1ccc(C(=O)CSc2nc3ccccc3c(=O)[nH]2)cc1 |  | inconclusive: 0.517 µM [rising, full curve, poor fit] |
| CCOc1ccc(-n2c(N)c(C(=O)NCc3ccco3)c3nc4ccccc4nc32)cc1 | inconclusive: 6.54% |  |
| O=C(Nc1ccc(N2CCOCC2)c(Cl)c1)C1CCCCC1 | inconclusive: -13.8% |  |
| CCNc1nc(NCC)nc(SCCOC(=O)COc2ccc(Cl)cc2Cl)n1 | inconclusive: 19.7% |  |

| SMILES | activity change, negative = inhibition | Potency |
| --- | --- | --- |
| O=C(NCc1ccccc1Cl)c1ccc2c(c1)NC(=O)C(CS(=O)(=O)Cc1ccc(F)cc1Cl)N2 (configuration not stated) | inactive |  |
| CCCNC(=O)NNC(=O)c1cc(-c2ccc3c(c2)OCO3)nc2ccccc12 |  | inconclusive: 7.94 µM [falling, partial curve] |
| COc1cccc(-c2nc(Oc3cccc(C)c3C)c3ccccc3n2)c1O | inconclusive: 3.32% |  |
| Cc1cc(C(=O)Nc2ccc(Nc3ccccc3)cc2)ccc1[N+](=O)[O-] | inactive |  |
| Cc1onc(-c2ccccc2Cl)c1C(=O)NCc1nnnn1-c1ccc(F)cc1 | inconclusive: 15.4% |  |
| CC(/C=N/NC(=O)c1cc(-c2ccncc2)nc2ccccc12)=C\c1ccco1 |  | inconclusive: 3.98 µM [falling, partial curve, poor fit] |
| O=C(Nc1ccccc1F)Nc1ccccc1Br | inconclusive: -25.9% |  |
| COCCNC(=O)c1cc(-c2ccc3c(c2)OCO3)on1 | inactive |  |
| CCCOc1ccc(/C=N/NC(=O)c2ccc(Cn3cc([N+](=O)[O-])cn3)o2)cc1 | inconclusive: -19.8% |  |
| COc1ccc(C)cc1C1=Nc2ccccc2C1(C)C | inactive |  |
| COc1ccc(NC(=O)c2cc3ccccc3cc2OC)cc1OC |  | inconclusive: 22.4 µM [falling, single point] |
| O=[N+]([O-])c1ccc(-c2nnc3cccc(Cl)n23)cc1 | inconclusive: 10.2% |  |
| N#Cc1ccc(C(=O)Nc2ccc([N+](=O)[O-])cc2)c(F)c1 | inconclusive: 25.8% |  |
| COc1ccc(NS(=O)(=O)c2cc(NC(=O)c3ccc(Cl)cc3)ccc2N2CCOCC2)cc1 | inconclusive: 0.0631% |  |
| O=C(NCCCN1CCOCC1)c1ccc(NS(=O)(=O)c2cccc([N+](=O)[O-])c2)cc1 | inactive |  |
| O=C(c1ccco1)N1CCCC(c2nc3c(nnn3Cc3ccc(F)cc3)c(=O)[nH]2)C1 (configuration not stated) | inactive |  |
| O=C(c1cc(-c2ccc(Cl)cc2)n(-c2ccc(Cl)c(Cl)c2)n1)N1CCOCC1 | inconclusive: 7.68% |  |
| COc1ccc(CNc2nc3nc(C)cc(C)n3n2)cc1OC | inactive |  |
| Fc1ccc(Nc2ccc3ccccc3n2)c(F)c1 | inconclusive: 2.91% |  |
| CCc1cccc2sc(N3CCN(C(=O)c4ccc([N+](=O)[O-])o4)CC3)nc12 | inconclusive: 1.56% |  |
| O=C(c1ccc(Cl)c(S(=O)(=O)N2CCCCC2)c1)N1CCN(c2ccccc2)CC1 | inactive |  |

| SMILES | activity change, negative = inhibition | Potency |
| --- | --- | --- |
| O=C(c1cc2cc(F)ccc2[nH]1)N1CCN(C(=O)c2ccco2)CC1 | inactive |  |
| Cc1cc(C(F)(F)F)c2c(N)c(C(=O)Nc3cc(C)on3)sc2n1 | inactive |  |
| COc1ccc(OCCN2CCN(S(=O)(=O)c3ccccc3C#N)CC2)cc1 | inconclusive: 2.72% |  |
| O=C(Oc1ccc(N(C(=O)c2ccncc2)S(=O)(=O)c2ccc(Cl)cc2)cc1)c1ccncc1 | inconclusive: 5.32% |  |
| CC1CCN(C(=O)c2ccc(NS(=O)(=O)c3ccc4[nH]c(=O)[nH]c4c3)cc2)CC1 | inactive |  |
| CN(CC(=O)NCCCN1CCOCC1)S(=O)(=O)c1ccc(Br)cc1 | inconclusive: -0.31% |  |
| O=C(C[n+]1cc(-c2ccc(Cl)cc2)n2c1CCC2)N1c2ccccc2Sc2ccccc21 |  | inconclusive: 16.4 µM [falling, partial curve] |
| COc1ccsc1C(=O)N1CCN(Cc2ccc3c(c2)OCO3)CC1 | inconclusive: -13.1% |  |
| O=Cc1c[nH]c2ccc(C(=O)c3ccccc3)cc12 |  | inconclusive: 10 µM [falling, partial curve, poor fit] |
| COc1cc(C(=O)Nc2ccccc2NC(=O)c2cc(OC)c(OC)c(OC)c2)cc(OC)c1OC | inconclusive: -7.28% |  |
| Cc1ccc(Oc2nc3c(c(=O)n(C)c(=O)n3C)n2C)cc1C | inconclusive: 4.39% |  |
| COc1cc(/C=C(\C#N)C(N)=O)ccc1OS(=O)(=O)c1ccc(C)cc1 | inactive |  |
| CC1CCN(CC(=O)Nc2sc3c(c2C#N)CCC3)CC1 | inconclusive: 5.19% |  |
| CCCn1nnc(NC(=O)c2ccc3c(c2)OCO3)n1 | inconclusive: -21.9% |  |
| COc1ccc(NC(=O)COC(=O)Cc2ccc(-c3ccccc3)cc2)c(OC)c1 |  | inconclusive: 4.61 µM [falling, partial curve, poor fit] |
| COc1ccc(C2(CNC(=O)c3ccc(C)cc3)CCOCC2)cc1 | inconclusive: 2.42% |  |
| CCOC(=O)c1c(C)[nH]c(C(=O)CN2C(=O)NC(C)(c3ccc(C)cc3)C2=O)c1C (configuration not stated) | inconclusive: 9.27% |  |
| COC(=O)c1ccc(C2/C(=C(/O)c3ccc4c(c3)CC(C)O4)C(=O)C(=O)N2Cc2cccnc2)cc1 (configuration not stated) |  | inconclusive: 35.5 µM [falling, partial curve, poor fit] |
| c1ccc(C2=Nn3c(nnc3-c3cccnc3)SC2)cc1 |  | inconclusive: 28.2 µM [falling, partial curve, poor fit] |

An excerpt of the results above, as a working copy:

| SMILES | activity change, negative = inhibition | Potency |
| --- | --- | --- |
| COc1ccc(NC(=O)COC(=O)Cc2ccc(-c3ccccc3)cc2)c(OC)c1 |  | inconclusive: 4.61 µM [falling, partial curve, poor fit] |
| COc1ccc(C2(CNC(=O)c3ccc(C)cc3)CCOCC2)cc1 | inconclusive: 2.42% |  |
| CCOC(=O)c1c(C)[nH]c(C(=O)CN2C(=O)NC(C)(c3ccc(C)cc3)C2=O)c1C (configuration not stated) | inconclusive: 9.27% |  |
| COC(=O)c1ccc(C2/C(=C(/O)c3ccc4c(c3)CC(C)O4)C(=O)C(=O)N2Cc2cccnc2)cc1 (configuration not stated) |  | inconclusive: 35.5 µM [falling, partial curve, poor fit] |
| c1ccc(C2=Nn3c(nnc3-c3cccnc3)SC2)cc1 |  | inconclusive: 28.2 µM [falling, partial curve, poor fit] |
